These are yes or no findings as the source states them, for the method shown. In cells and extracts the contact can be indirect. Some results given as binding are weak or reduced against the parent protein; the word gives no strength. For part of these data: Tags and fused reporters may be left off the sequences shown.
T1: RNase L, two differently tagged copies co-expressed (5×Flag-RNase L and 5×Myc-RNase L), Q05823
T1 chain: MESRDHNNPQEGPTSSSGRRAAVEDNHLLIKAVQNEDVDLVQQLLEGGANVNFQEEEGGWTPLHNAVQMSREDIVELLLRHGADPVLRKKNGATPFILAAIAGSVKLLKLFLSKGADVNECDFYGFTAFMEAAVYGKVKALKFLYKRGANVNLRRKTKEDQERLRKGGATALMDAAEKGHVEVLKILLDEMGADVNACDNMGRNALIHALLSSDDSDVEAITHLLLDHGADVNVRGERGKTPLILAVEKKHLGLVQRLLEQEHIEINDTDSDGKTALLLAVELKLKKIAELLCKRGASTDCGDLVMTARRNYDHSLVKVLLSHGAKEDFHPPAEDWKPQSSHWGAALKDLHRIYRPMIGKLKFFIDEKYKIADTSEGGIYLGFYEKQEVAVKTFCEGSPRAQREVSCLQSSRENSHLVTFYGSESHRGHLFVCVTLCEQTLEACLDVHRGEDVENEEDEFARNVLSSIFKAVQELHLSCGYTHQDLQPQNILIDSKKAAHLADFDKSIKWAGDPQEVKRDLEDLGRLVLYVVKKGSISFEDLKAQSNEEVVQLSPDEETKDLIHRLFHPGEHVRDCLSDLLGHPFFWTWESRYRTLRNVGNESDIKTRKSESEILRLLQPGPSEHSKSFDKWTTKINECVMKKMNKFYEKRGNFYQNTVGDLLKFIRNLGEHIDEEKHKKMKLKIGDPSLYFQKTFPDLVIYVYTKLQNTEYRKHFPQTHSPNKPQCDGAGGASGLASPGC

Amino acid sequences for entries named in this document (tags omitted).
UniProt Q9BRX2: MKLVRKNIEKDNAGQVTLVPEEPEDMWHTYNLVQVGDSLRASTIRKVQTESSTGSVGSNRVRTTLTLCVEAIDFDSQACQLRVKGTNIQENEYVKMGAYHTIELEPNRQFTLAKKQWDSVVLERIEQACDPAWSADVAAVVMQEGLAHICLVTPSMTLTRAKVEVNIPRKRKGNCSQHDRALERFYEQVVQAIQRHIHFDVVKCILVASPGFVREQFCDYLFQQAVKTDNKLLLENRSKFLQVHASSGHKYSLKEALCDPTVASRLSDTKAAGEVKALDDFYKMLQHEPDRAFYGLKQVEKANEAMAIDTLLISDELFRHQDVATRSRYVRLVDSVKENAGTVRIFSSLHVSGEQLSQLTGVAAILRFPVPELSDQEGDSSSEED


Columns and labels:
5×Flag-Pelota = 5×Flag-Pelota (UniProt Q9BRX2); assay: co-IP; HeLa lysates in buffer B (100 mM NaCl, 1 mM EDTA, 0.5% Nonidet P-40, 0.25% sodium deoxycholate, 5 μg/mL RNase A, pH 7.5); anti-Flag M2 agarose, 10 °C, 1 h; western blotting
[1] = biological target: T1, RNase L, two differently tagged copies …; assay: co-IP; HeLa lysates in buffer A; anti-Flag M2 agarose; in the presence of 2-5A (0.2 μM); with or without overexpressed ABCE1; conditions: remark: other sources report otherwise
[2] = biological target: T1, RNase L, two differently tagged copies …; assay: co-IP; HeLa lysates in buffer A (100 mM NaCl, 1 mM MgCl2, 0.5% Nonidet P-40, pH 7.5); anti-Flag M2 agarose; without 2-5A; with or without overexpressed ABCE1; conditions: remark: other sources report otherwise

| binding (5×Flag-Pelota) | binding [1] | binding [2] | Binder |
| --- | --- | --- | --- |
| binds | – | – | endogenous RNase L (protein, UniProt Q05823 1-741) MESRDHNNPQEGPTSSSGRRAAVEDNHLLIKAVQNEDVDLVQQLLEGGANVNFQEEEGGWTPLHNAVQMSREDIVELLLRHGADPVLRKKNGATPFILAAIAGSVKLLKLFLSKGADVNECDFYGFTAFMEAAVYGKVKALKFLYKRGANVNLRRKTKEDQERLRKGGATALMDAAEKGHVEVLKILLDEMGADVNACDNMGRNALIHALLSSDDSDVEAITHLLLDHGADVNVRGERGKTPLILAVEKKHLGLVQRLLEQEHIEINDTDSDGKTALLLAVELKLKKIAELLCKRGASTDCGDLVMTARRNYDHSLVKVLLSHGAKEDFHPPAEDWKPQSSHWGAALKDLHRIYRPMIGKLKFFIDEKYKIADTSEGGIYLGFYEKQEVAVKTFCEGSPRAQREVSCLQSSRENSHLVTFYGSESHRGHLFVCVTLCEQTLEACLDVHRGEDVENEEDEFARNVLSSIFKAVQELHLSCGYTHQDLQPQNILIDSKKAAHLADFDKSIKWAGDPQEVKRDLEDLGRLVLYVVKKGSISFEDLKAQSNEEVVQLSPDEETKDLIHRLFHPGEHVRDCLSDLLGHPFFWTWESRYRTLRNVGNESDIKTRKSESEILRLLQPGPSEHSKSFDKWTTKINECVMKKMNKFYEKRGNFYQNTVGDLLKFIRNLGEHIDEEKHKKMKLKIGDPSLYFQKTFPDLVIYVYTKLQNTEYRKHFPQTHSPNKPQCDGAGGASGLASPGC |
| – | binds | binds | RNase L, two differently tagged copies co-expressed (5×Flag-RNase L and 5×Myc-RNase L), Q05823 1-741 (protein) MESRDHNNPQEGPTSSSGRRAAVEDNHLLIKAVQNEDVDLVQQLLEGGANVNFQEEEGGWTPLHNAVQMSREDIVELLLRHGADPVLRKKNGATPFILAAIAGSVKLLKLFLSKGADVNECDFYGFTAFMEAAVYGKVKALKFLYKRGANVNLRRKTKEDQERLRKGGATALMDAAEKGHVEVLKILLDEMGADVNACDNMGRNALIHALLSSDDSDVEAITHLLLDHGADVNVRGERGKTPLILAVEKKHLGLVQRLLEQEHIEINDTDSDGKTALLLAVELKLKKIAELLCKRGASTDCGDLVMTARRNYDHSLVKVLLSHGAKEDFHPPAEDWKPQSSHWGAALKDLHRIYRPMIGKLKFFIDEKYKIADTSEGGIYLGFYEKQEVAVKTFCEGSPRAQREVSCLQSSRENSHLVTFYGSESHRGHLFVCVTLCEQTLEACLDVHRGEDVENEEDEFARNVLSSIFKAVQELHLSCGYTHQDLQPQNILIDSKKAAHLADFDKSIKWAGDPQEVKRDLEDLGRLVLYVVKKGSISFEDLKAQSNEEVVQLSPDEETKDLIHRLFHPGEHVRDCLSDLLGHPFFWTWESRYRTLRNVGNESDIKTRKSESEILRLLQPGPSEHSKSFDKWTTKINECVMKKMNKFYEKRGNFYQNTVGDLLKFIRNLGEHIDEEKHKKMKLKIGDPSLYFQKTFPDLVIYVYTKLQNTEYRKHFPQTHSPNKPQCDGAGGASGLASPGC |
